The test concerns the target T1, CD47 (mouse (endogenous in myocardial tissue)) (UniProt Q61735).
T1 sequence: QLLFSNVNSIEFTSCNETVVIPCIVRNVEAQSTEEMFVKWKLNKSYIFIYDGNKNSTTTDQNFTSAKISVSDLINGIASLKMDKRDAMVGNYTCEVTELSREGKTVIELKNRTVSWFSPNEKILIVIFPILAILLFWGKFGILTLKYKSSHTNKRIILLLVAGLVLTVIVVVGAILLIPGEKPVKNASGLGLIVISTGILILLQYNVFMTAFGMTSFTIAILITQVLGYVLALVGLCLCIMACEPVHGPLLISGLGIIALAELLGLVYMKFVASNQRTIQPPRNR
As to the kind of experiment: co-IP; endogenous proteins in lysates of mouse myocardial tissue (Con: 0.5 h and IR: 8 h cold ischemia, 24 h after heart transplantation); antibody-conjugated protein A/G magnetic beads, western blotting; isotype IgG as negative control; which of the two was precipitated is not stated. For orientation: In western blotting, separated proteins are transferred to a membrane and probed.

Sequences of proteins named here, by UniProt entry; tags and fusion partners are left off. Residues count along the entry.
UniProt P35441, residues 19-1170: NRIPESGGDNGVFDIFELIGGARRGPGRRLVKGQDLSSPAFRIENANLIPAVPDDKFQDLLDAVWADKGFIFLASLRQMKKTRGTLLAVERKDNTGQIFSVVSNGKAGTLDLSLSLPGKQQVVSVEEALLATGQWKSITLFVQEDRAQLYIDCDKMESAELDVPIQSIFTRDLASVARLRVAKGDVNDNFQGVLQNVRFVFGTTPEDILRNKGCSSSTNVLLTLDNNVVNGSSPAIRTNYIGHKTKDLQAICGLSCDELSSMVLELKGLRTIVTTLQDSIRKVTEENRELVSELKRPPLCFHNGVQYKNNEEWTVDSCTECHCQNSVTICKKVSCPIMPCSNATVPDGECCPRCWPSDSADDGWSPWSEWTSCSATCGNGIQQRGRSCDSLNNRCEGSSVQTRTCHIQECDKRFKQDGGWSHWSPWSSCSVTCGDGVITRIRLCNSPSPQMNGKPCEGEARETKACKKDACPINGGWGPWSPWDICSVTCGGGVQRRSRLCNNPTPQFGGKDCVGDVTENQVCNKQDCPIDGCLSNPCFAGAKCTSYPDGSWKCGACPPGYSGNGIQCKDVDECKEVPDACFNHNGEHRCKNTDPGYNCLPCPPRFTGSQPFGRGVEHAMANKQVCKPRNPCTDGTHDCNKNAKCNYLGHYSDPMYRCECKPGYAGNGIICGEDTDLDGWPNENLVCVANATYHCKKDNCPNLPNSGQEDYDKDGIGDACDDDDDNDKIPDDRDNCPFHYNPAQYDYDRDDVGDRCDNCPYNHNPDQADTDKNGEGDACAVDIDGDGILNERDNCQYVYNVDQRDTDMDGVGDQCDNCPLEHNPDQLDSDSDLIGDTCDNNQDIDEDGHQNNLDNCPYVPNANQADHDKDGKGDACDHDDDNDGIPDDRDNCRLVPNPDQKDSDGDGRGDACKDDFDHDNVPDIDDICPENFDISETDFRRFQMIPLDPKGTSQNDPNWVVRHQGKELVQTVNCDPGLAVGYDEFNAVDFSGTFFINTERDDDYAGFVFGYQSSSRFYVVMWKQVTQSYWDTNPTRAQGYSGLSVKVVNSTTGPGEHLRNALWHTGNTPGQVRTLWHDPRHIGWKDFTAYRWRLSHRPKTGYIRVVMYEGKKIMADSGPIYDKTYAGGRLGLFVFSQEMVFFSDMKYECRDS

No constants are given. Whether binding was seen depends on the method and setting. Binding seen in cells or lysates may run through a third protein. Some binding calls cover weakened binding; strength is not graded here.

Turning to “thrombospondin-1 (THBS1) (from UniProt P35441 19-1170) (ligand)”, the binding result is reported as “binds”.

Values taken from article PMC12667509, “Inhibition of Macrophage ARID3A Alleviates Myocardial Ischemia‐Reperfusion Injury After Heart Transplantation by Reducing THBS1/CD47 Signaling‐Mediated Neutrophil Extracellular Traps Formation” (Advanced Science, 2025).
